The record followed here is US20170160285A1 (VIB VZW, published 2017).

T1: Recombinant rat RIC8A (resistance to inhibitors of cholinesterase 8A) (rat) (UniProt Q80ZG1)
T1 sequence (looked up): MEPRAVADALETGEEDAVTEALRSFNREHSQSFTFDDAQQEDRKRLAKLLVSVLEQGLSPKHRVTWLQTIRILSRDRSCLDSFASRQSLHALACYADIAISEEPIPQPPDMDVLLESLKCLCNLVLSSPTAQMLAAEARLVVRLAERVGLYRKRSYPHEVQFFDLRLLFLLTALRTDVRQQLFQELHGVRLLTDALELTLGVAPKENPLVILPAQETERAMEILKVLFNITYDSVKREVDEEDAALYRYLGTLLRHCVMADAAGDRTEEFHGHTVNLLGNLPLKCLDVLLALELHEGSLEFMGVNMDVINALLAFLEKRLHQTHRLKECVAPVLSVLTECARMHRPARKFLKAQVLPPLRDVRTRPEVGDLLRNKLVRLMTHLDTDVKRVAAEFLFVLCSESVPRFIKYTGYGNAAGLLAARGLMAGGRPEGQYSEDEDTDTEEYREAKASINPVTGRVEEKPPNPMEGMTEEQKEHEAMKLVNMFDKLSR

B1: NANOBODY CA8419 (VHH)
VHH: QVQLVESGGGLVQPGGSLRLSCAASGFTFSRFVMNWARQAPGKGLEWVSTINSDGDVTSYADSVKGRFTISRDNAKNTLYLQMNSLKPEDTAVYYCGKGWFLNRRDESRGQGTQVTVSS
notes: Family 24
B2: NANOBODY CA8408 (VHH)
VHH: QVQLVESGGGLVQAGDSLRLSCAASGLIVSNYAMGWFRQAPGKEREFVAYINWNGGVTYYTNSVKGRFTISRDNAKNTVYLQMNSLKPEDTAVYYCARTSRASVTTRVADFGYWGQGTQVTVSS
notes: Family 6; also called CA8109 (pMESy4, E. coli)
B3: NANOBODY CA8411 (VHH)
VHH: QVQLVESGGGLVQAGGSLRLSCAASARTFSRYGAGWFRQAPGKEREFVGAITWGGGRTKYADSVKGRFTISRDNSKNTVYLQMNSLKSEDTAVYYCASSSIEFGPLEDTYDYWGQGTQVTVSS
notes: Family 3
B4: NANOBODY CA8424 (VHH)
VHH: QVQLVESGGDLVQAGGSLRLSCAASGGIFIINNMGWYRQTPGNQRELVAEITRAGNSNYADSVKGRFTISRDNAKNTVYLQMNRLKPEDTAVYYCNFNVRYYGEYWGQGTQVTVSS
notes: Family 29; also called CA8444 (pMESy4, E. coli)
B5: NANOBODY CA8421 (VHH)
VHH: QVQLVESGGGLVQAGGSLRLSCAASGRTFSNYAMGWFRQAPGKEREFVAHITWTGGITYYSDSVKGRFIISRDNAKNTVNLQMNSLKAEDTAVYYCAADRVPYRFGVPSINEYDYWGQGTQVTVSS
notes: Family 26
B6: NANOBODY CA8322 (VHH)
VHH: QVQLVESEGGLVQPGGSLRLSCAASGFTFKYYYMNWVRQAPGKGLEWVSRINQLGGTSYGDSVKGRFTISRDNAKNTLYLQMNSLVPEDTAVYYCARCPAGAACKVEYDYRGQGTQVTVSS
notes: Family 16; also called CA8338 (pMESy4, E. coli)
B7: NANOBODY CA8418 (VHH)
VHH: QVQLVESGGGLVQAGGSLRLSCAASGRTFSNYAMGWFRQAPGKEREFVAALTWSGGNTVYRDSVKGRFIITRDNAKNAVYLQMNSLKPEDTAVYYCASDRRPYRYNIGTAEGEYNYWGQGTQVTVSS
notes: Family 23
B8: NANOBODY CA8406 (VHH)
VHH: QVQLVESGGGLVQPGGSLRLSCAASTNIFNLRSMGWYRQAPGKERELVATITTYNTNYADSVKGRFTISRDNAKKTMYLQMNSLRPEDTAVYYCNLQNRYDAMDYWGKGTQVTVSS
notes: Family 11
B9: NANOBODY CA8402 (VHH)
VHH: QVQLVESGGGLVQAGGSLRLSCAASGRTFSNYAMGWFRQAPGKEREFVAAISWSGGKTLYAESVKGRFTISRDNAKNTVYLQMNSLKPEDTAVYYCAATPADLTVVAGPPRIEMWYWGQGTQVTVSS
notes: Family 19; also called CA8431 (pMESy4, E. coli)
B10: NANOBODY CA8405 (VHH)
VHH: QVQLVESGGGLVQDGGSLRLSCTASGRTFSNNAMGWFRQEPGREREFVAAIRWNGIANYADSVKGRFTISGDNAKNTVYLQMNSLKPDDTAVYYCAAAIRDGHNYYASDMRRYDYWGQGTQVTVSS
notes: Family 21; also called CA8433 (pMESy4, E. coli)
B11: NANOBODY CA8312 (VHH)
VHH: QVQLVESGGGLVQAGGSKRLSCAASGRPFSNSAMGWFRQAPGKEREFVAAISWSGGNTYYADSVKGRFTISRDNAKNAVYLRMNSLEPEDTAVYYCAGDRQPYVYDLPTAQYQYDYWGQGTQVTVSS
notes: Family 1; also called CA8328 (pMESy4, E. coli)
B12: NANOBODY CA8403 (VHH)
VHH: QVQLVESGGGLVQAGGSLRLSCAASTRTFSNYVMGWFRQAPGKEREFVSAITSSGRGTSYADSVKGRFTISRDNAKNTVFLQMNSLKPEDTAVYYCAATAADYVLRSRPSVYSYWGQGTQVTVSS
notes: Family 20; also called CA8432 (pMESy4, E. coli)
B13: NANOBODY CA8315 (VHH)
VHH: QVQLVESGGGLVQAGGSLRLSCAASGRTFSNYAMGWFRQTPGKEREFVAAITWSGGATYYADSVKGRFIISRDNTKNTVYLQMNSLKPEDTAVYYCAADRKPYSYYPSDFGSWGQGTQVTVSS
notes: Family 5; also called CA8331 (pMESy4, E. coli)
B14: NANOBODY CA8319 (VHH)
VHH: QVQLVESGGGLVQAGGSLRLSCEASGRTSSSYVMGWFRRVSGKEREFVAAINPTGSSTYYADSVKGRFTISRDNSKNTVYVQMNGLKPEDTAVYYCAATRRDFYIIRNSRPQFDYWGQGTQVTVSS
notes: Family 10
B15: NANOBODY CA8316 (VHH)
VHH: QLQLVESGGGLVQAGGSLRLSCAASGDTFSRYVMGWFRQAPGKERTFVVGISGGGGITRYADSVKGRFTISRDNAENTLYLEMNTLNPEDTAVYYCAATPADSAFMRNLRVYDYWGQGTQVTVSS
notes: Family 7; The same nanobody subcloned in pMESy4 and purified from E. coli is CA8332
B16: NANOBODY CA8318 (VHH)
VHH: QVQLVESGGGRVQAGDSLRLSCAASGRTFSPYAMGWFRQAPGKEREFVATINWSGDYTYYTDSVKGRFTTSRDNAKNTLYLEMNSLNAEDTAVYYCVARVGSPSSSDRAYQYWGQGTQVTVSS
notes: Family 8; also called CA8334 (pMESy4, E. coli)
B17: NANOBODY CA8314 (VHH)
VHH: QVQLVESGGGLVQAGDSLRLSCTASERAFSRYAMGWFRQAPGKERELVAAVSWAGGTTYYGDSVKGRFTISRDNAKITVYLQMNSLKPEDTAVYYCAAEAREFSVGSYYATEYDYWGQGTQVTVSS
notes: Family 4; also called CA8330 (pMESy4, E. coli)

These are yes or no findings as the source states them, for the method shown. Some entries that bind do so weakly or less than the wild type.

The target of the first assay is T1, Recombinant rat RIC8A (resistance to inhibitors of cholinesterase 8A) (rat). Description: FACS on single yeast clone displaying the Nb; 1 µM RIC8A-DYLIGHT-405.
As to B1, the binding entry is listed as “binds”. The same measure, in the same setting: next, B2: “binds”; B3: “binds”; B4: “binds”. Same read-out and setting: next, B5: “binds”; B6: “binds”; B7: “binds”. As to B8, the binding result is “binds”.

The target in the next assay is RIC8A/Gαi1 complex (non-covalent) (rat) (UniProt Q80ZG1). Nature of the assay: FACS on single yeast clone displaying the Nb; 1 µM RIC8A-DYLIGHT-405/Gαi1-DYLIGHT-488 complex.
As to B9, the binding entry is given as “binds”. On to B10, for which the binding result is “binds”.

For the molecule B11, the binding entry is on record as “binds”. Same read-out and setting: the same measure for B12: “binds”; for B1: “binds”.

In the case of B13, the binding result is listed as “binds”.

With B14, the binding result is listed as “binds”.

On to B15, for which the binding entry is “binds”. Same read-out and setting: next, B16: “binds”. The same measure, in the same setting: next, B3: “binds”; B4: “binds”.

Take B5: the binding entry is “binds”. Still for that read-out and setting: next, B17: “binds”; B6: “binds”. B7: the binding entry is recorded as “binds”.

The next assay has the same target. Description: FACS of yeast cells displaying the Nb, stained with 1 µM RIC8A-DYLIGHT-405/Gαi1-DYLIGHT-488 mixture; black = clone (CA8322 per legend), grey = irrelevant Nb.
Consider B6, for which the binding entry is “binds”.

For the next assay the target is unchanged. Description: FACS of yeast cells displaying the Nb, stained with 1 µM RIC8A-DYLIGHT-405/Gαi1-DYLIGHT-488 mixture; black = clone (CA8316 per legend), grey = irrelevant Nb.
For the molecule B15, the binding entry is given as “binds”.

The next assay addresses T1, Recombinant rat RIC8A (resistance to inhibitors of cholinesterase 8A) (rat). Description: FACS of yeast cells displaying the Nb, stained with 1 µM RIC8A-DYLIGHT-405; black = clone (CA8322 per legend), grey = irrelevant Nb.
As to B6, the binding result is “binds”.
